# Primary screen of a compound library

Amino acid sequences for entries named in this document (tags omitted). Residues count along the entry.
UniProt Q4DA54, 1-478: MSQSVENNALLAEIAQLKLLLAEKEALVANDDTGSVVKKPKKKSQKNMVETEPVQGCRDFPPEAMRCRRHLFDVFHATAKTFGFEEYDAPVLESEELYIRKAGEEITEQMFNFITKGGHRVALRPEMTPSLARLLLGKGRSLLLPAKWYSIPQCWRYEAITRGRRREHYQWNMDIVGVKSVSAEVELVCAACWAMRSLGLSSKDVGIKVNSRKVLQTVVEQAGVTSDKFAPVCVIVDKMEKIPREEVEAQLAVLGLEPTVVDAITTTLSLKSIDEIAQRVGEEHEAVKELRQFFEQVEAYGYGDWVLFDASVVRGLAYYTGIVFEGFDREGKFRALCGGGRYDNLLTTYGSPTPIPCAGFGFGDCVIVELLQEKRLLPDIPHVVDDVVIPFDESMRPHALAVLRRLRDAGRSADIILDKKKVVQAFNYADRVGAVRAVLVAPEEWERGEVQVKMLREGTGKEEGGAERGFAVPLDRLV
UniProt A4I591, 1-473: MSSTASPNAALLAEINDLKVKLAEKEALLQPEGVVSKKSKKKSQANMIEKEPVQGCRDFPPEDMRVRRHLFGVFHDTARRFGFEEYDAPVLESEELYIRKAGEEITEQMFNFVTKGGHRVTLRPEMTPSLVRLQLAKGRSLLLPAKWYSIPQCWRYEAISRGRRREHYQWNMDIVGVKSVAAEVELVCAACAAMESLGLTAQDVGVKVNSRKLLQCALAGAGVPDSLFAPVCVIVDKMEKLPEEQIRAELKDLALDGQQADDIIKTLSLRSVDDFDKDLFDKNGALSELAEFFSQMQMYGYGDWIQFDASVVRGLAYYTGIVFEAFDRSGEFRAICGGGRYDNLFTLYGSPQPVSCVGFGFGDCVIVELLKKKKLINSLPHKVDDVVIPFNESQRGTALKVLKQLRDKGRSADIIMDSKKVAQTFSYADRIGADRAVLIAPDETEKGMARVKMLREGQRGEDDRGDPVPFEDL
UniProt P9WPC5, whole entry: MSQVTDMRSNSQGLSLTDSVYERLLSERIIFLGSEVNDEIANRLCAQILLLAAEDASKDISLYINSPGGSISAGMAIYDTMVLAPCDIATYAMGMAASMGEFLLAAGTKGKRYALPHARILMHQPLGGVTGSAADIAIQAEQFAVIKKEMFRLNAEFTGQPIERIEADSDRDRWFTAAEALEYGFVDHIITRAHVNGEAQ
UniProt P9WPC3, whole entry partner: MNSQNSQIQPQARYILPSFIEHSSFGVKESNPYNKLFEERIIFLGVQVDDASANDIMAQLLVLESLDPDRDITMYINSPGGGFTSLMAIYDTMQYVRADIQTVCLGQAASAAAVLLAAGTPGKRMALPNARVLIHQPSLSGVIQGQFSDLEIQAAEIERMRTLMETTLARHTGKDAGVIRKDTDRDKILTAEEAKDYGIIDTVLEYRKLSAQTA

The filed quantity is “Percent Effect” (%).
The controls that fix the scale are not given in the record; negative values are as filed.
This is an unselected part of the compounds tested.
Two or more numbers in one place are separate tests of the same structure; such repeats can differ widely.

Toxoplasma: 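Assay of Toxoplasma gondii numbers, read through their beta-galactosidase reporter with a colour substrate. Tested at 10 µM. The record gives no direction; the compounds picked for IC50 retests had high values, so higher reads as fewer parasites. About 67,000 compounds were tested under these conditions; 0.38% (about 260) showed 50% or more at least once.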
Leishmania in macrophages: 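Cell assay of Leishmania donovani living inside macrophages; the read-out is not stated. Tested at 30 µM. Direction is inferred from retests: higher values go with stronger inhibition. About 69,000 compounds were tested under these conditions; 1.5% (about 1,000) showed 50% or more at least once.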
TcHisRS: 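Enzyme assay of histidyl-tRNA synthetase; the read-out is not stated. Target: Histidine-tRNA ligase, Trypanosoma cruzi CL Brener (UniProt Q4DA54). Compounds at 30 µM. The record gives no direction; compounds that gave an IC50 in retests scored well above the rest, so higher reads as stronger inhibition. Size under these conditions: about 69,000 compounds, about 31 of them at 50% or above in at least one test.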
LiHisRS: 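Histidine-tRNA ligase, Leishmania infantum (UniProt A4I591). Enzyme assay of histidyl-tRNA synthetase; the read-out is not stated. Concentration: 30 µM. Higher reads as stronger inhibition (inferred: compounds with an IC50 in retests scored well above the rest). The assay is labelled LdHisRS but filed under L. infantum. Of about 69,000 compounds tested this way, about 410 (0.6%) reached 50% or more in at least one test.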
ClpP1P2: 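Protease assay of ClpP1P2, read by the AMC dye that it sets free. Target: ClpP1P2, Mycobacterium tuberculosis (UniProt P9WPC5 and UniProt P9WPC3). Concentration: 50 µM. Direction is inferred from only a few compounds that gave an IC50; most scored high, so higher reads as stronger inhibition. Most other retested compounds had strongly negative values. Size under these conditions: about 69,000 compounds, about 10 of them at 50% or above in at least one test.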
T. brucei: 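Whole-parasite assay of Trypanosoma brucei over 72 hours; the read-out is not stated. Compounds at 30 µM. The record gives no direction; compounds that gave an IC50 in retests scored well above the rest, so higher reads as stronger inhibition. Values scatter widely below zero; nearly all retest evidence comes from the higher of the two concentrations used. Of about 64,000 compounds tested this way, about 940 (1.5%) reached 50% or more in at least one test.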

COc1ccsc1C(=O)Nc1cc(Br)c(=O)n(C)c1 gave Toxoplasma: 2.535%; Leishmania in macrophages: 7.159%; TcHisRS: 8.889%; LiHisRS: 108.5%; ClpP1P2: -1.274%; T. brucei: -3.549%. Result for c1cc(-c2cn3nccc3nc2C2CCCCC2)nc(N2CCCC2)n1 was Toxoplasma: 24.19%; Leishmania in macrophages: 9.924% and 0.5265%; TcHisRS: 20.34%; LiHisRS: 8.571%; ClpP1P2: 2.998%; T. brucei: 41.66%. CCc1c(O)nc(SCC(=O)Nc2ccccc2)n(C(C)CC)c1=O (stereo unspecified) read Toxoplasma: 2.132%; Leishmania in macrophages: 24.76%; TcHisRS: 4.545%; LiHisRS: 9.677%; ClpP1P2: 0.06443%; T. brucei: 2.702%. Result for CCCN1CCc2[nH]cnc2C12CCN(C(=O)CCn1cccn1)CC2 was Toxoplasma: -12.48%; Leishmania in macrophages: 24.49%; TcHisRS: 8.434%; LiHisRS: 14%; ClpP1P2: -8.052%; T. brucei: -11.62%. Result for NC(=O)C1CCCN(S(=O)(=O)c2cnn(-c3ccccc3)c2)C1 (stereo unspecified) was Toxoplasma: 3.933%; Leishmania in macrophages: 13.13%; TcHisRS: 8.021%; LiHisRS: 17.28%; ClpP1P2: 7.922%; T. brucei: 12.35%.

With COC(=O)C1CCN(C(=O)Nc2cc(-n3cccc3)ccc2F)CC1 the screen gave Toxoplasma: -0.9091%; Leishmania in macrophages: 9.655%; TcHisRS: 8.621%; LiHisRS: 13.16%; ClpP1P2: 4.43%; T. brucei: 17.75%. With O=C1N(Cc2ccc(F)c(F)c2)CCCC1(O)CNCc1cccnc1 (stereo unspecified) the screen gave Toxoplasma: 5.607%; Leishmania in macrophages: 12.06%; TcHisRS: 6.726%; LiHisRS: 15.29%; ClpP1P2: -7.334%; T. brucei: -7.678%. With O=C1CN(C(=O)C2CCCOC2)CCN1Cc1ccc(Cl)cc1 (stereo unspecified) the screen gave Toxoplasma: -6.714%; Leishmania in macrophages: 21.44%; TcHisRS: 4.516%; LiHisRS: 11.11%; ClpP1P2: 1.301%; T. brucei: -5.22%. With O=C(C1CC=CC1)N1CC[C@H]2[C@@H]1CCC(=O)N2c1ccccc1 the screen gave TcHisRS: 10.34%; LiHisRS: 10.53%; ClpP1P2: 4.36%. With O=C(Cc1cccnc1)N1CCC2(CC1)CCN(C1CCOCC1)C2.O=C(O)C(F)(F)F.O=C(O)C(F)(F)F the screen gave Toxoplasma: 17.77%; Leishmania in macrophages: 8.803%; T. brucei: -19.54%.

COc1ccc(S(=O)(=O)N2CCn3nc(C)nc3C2)cc1C gave Toxoplasma: -5.745%; Leishmania in macrophages: 21.91%; TcHisRS: 3.922%; LiHisRS: 17.65%; ClpP1P2: -3.168%; T. brucei: -35%. O=C(NCc1ccccn1)N(Cc1ccc(F)cc1F)C1CC1 gave Leishmania in macrophages: 12.64%; TcHisRS: 1.504%; LiHisRS: 23.6%; ClpP1P2: -19.47%; T. brucei: 25.61%. With Cc1ccc(C(C)NC(=O)N2CCN(S(C)(=O)=O)CC2)o1 (stereo unspecified) the screen gave Toxoplasma: -4.4%; Leishmania in macrophages: -9.378%; TcHisRS: -2.463%; LiHisRS: 22.37%; ClpP1P2: 8.36%; T. brucei: -41.49%. For CSCCC(C)NC(=O)N(C)Cc1cc(Cl)cn1C (stereo unspecified) the result was Toxoplasma: 10.61%; Leishmania in macrophages: 3.695%; TcHisRS: 1.299%; LiHisRS: 17.14%; ClpP1P2: -1.744%; T. brucei: -14.04%. CS(=O)(=O)CC1(CNc2cc(C#N)c3cc(Cl)ccc3n2)CC1 read Toxoplasma: 8.721%; Leishmania in macrophages: 14.24%; TcHisRS: 4.972%; LiHisRS: 2.073%; ClpP1P2: -78.37%; T. brucei: 14.74%.

Cn1ccnc1-c1noc(NCc2ccc3c(c2)OCCO3)n1 read Toxoplasma: -3.605%; Leishmania in macrophages: 0.7432%; TcHisRS: 7.514%; LiHisRS: 19.15%; ClpP1P2: 0.0638%; T. brucei: -38.5%. For CN(Cc1nnnn1C1CC1)c1cccc2ccccc12 the result was Toxoplasma: -23.39%; Leishmania in macrophages: 15.66%; TcHisRS: 3.158%; LiHisRS: 13.7%; ClpP1P2: -8.53%; T. brucei: -0.535%. O=c1[nH]c(N2CCCCC2)nc2c1CCN(Cc1cccnc1)C2 gave Toxoplasma: 19.48%; Leishmania in macrophages: 11.16%; TcHisRS: 4.255%; LiHisRS: 15.62%; ClpP1P2: -1.401%; T. brucei: 9.481%. For CNS(=O)(=O)c1cccc(CNC(=O)c2cnn(C)c2C)c1 the result was Toxoplasma: -8.3%; Leishmania in macrophages: -0.6676%; TcHisRS: 0.5405%; LiHisRS: 10.26%; ClpP1P2: -4.704%; T. brucei: -25.62%. For O=C(CN(Cc1cccs1)C1CCS(=O)(=O)C1)NCCc1cccs1 (stereo unspecified) the result was Toxoplasma: 0.9709%; Leishmania in macrophages: -7.3%; TcHisRS: 10.83%; LiHisRS: 9.859%; ClpP1P2: 2.24%; T. brucei: -65.23%.

The first 2 entries again:

- COc1ccsc1C(=O)Nc1cc(Br)c(=O)n(C)c1 : Toxoplasma: 2.535%; Leishmania in macrophages: 7.159%; TcHisRS: 8.889%; LiHisRS: 108.5%; ClpP1P2: -1.274%; T. brucei: -3.549%
- c1cc(-c2cn3nccc3nc2C2CCCCC2)nc(N2CCCC2)n1 : Toxoplasma: 24.19%; Leishmania in macrophages: 9.924% and 0.5265%; TcHisRS: 20.34%; LiHisRS: 8.571%; ClpP1P2: 2.998%; T. brucei: 41.66%

From ChEMBL document CHEMBL3988442, “University of Dundee, Small-Polar-MMV Screening Library” (2021).